{"source": "patent US20070122398A1", "about": "“Encapsulated hydrophilic compounds” (priority 2004, published 2007)"}
{"test": "recovery of flavor from capsules: yeast alone versus yeast with matrix component (maltodextrin 18DE), ethanol extraction and GC-MS", "conditions": "Yeast 1 or Yeast 2 without matrix component, FIG. 1"}
{"smiles": "CC(=O)c1cnccn1", "note": "[1-(PYRAZINYL)-1-ETHANONE]", "absorption of flavor in yeast cell alone": "not well absorbed"}
{"smiles": "CC1OCCC1S", "note": "(racemic) [(+−)-TETRAHYDRO-2-METHYL-3-FURANTHIOL]", "absorption of flavor in yeast cell alone": "not well absorbed"}
{"smiles": "CC(=O)C(C)O", "note": "(racemic) [(+−)-3-HYDROXY-2-BUTANONE]", "absorption of flavor in yeast cell alone": "not well absorbed"}
{"smiles": "CC(=O)Sc1ccoc1C", "note": "[S-(2-METHYL-3-FURYL) ETHANETHIOATE]", "absorption of flavor in yeast cell alone": "not well absorbed"}
